# From the supplement of paper PMC7666118
# Chains of the proteins cited; added tags and fusions are not shown. Lines headed by an entry give the natural chain unless they say otherwise; changes in a name come on top.
# UniProt O43766: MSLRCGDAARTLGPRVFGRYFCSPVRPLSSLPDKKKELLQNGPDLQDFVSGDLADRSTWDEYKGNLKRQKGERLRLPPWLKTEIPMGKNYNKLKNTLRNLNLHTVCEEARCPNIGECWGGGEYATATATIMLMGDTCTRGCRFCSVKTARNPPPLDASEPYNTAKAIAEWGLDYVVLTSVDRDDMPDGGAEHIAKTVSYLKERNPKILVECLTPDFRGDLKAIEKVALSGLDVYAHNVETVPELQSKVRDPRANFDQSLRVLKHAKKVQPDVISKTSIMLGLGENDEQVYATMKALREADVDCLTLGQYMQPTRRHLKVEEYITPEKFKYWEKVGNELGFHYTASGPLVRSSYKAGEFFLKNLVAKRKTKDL
# UniProt P56270: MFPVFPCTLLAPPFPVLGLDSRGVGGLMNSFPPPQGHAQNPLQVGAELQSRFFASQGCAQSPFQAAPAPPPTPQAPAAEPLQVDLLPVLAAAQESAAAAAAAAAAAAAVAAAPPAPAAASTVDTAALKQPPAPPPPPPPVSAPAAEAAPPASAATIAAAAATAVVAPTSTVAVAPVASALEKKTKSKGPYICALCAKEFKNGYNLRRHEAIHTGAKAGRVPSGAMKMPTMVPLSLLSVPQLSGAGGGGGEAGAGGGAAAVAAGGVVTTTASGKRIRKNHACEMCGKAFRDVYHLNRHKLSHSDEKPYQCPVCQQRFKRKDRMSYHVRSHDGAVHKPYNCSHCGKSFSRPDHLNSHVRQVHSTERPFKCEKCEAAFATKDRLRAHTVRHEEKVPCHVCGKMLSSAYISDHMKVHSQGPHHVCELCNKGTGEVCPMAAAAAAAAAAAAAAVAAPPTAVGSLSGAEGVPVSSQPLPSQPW
# UniProt Q3SY17: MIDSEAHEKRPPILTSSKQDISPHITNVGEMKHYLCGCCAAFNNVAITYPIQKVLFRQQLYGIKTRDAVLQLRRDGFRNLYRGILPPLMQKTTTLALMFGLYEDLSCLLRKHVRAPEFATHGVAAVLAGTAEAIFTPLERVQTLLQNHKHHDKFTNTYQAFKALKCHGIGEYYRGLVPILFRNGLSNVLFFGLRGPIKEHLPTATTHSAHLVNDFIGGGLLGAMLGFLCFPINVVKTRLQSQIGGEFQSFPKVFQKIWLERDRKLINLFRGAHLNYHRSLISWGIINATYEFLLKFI
# UniProt Q8WXG6, whole entry, looked up: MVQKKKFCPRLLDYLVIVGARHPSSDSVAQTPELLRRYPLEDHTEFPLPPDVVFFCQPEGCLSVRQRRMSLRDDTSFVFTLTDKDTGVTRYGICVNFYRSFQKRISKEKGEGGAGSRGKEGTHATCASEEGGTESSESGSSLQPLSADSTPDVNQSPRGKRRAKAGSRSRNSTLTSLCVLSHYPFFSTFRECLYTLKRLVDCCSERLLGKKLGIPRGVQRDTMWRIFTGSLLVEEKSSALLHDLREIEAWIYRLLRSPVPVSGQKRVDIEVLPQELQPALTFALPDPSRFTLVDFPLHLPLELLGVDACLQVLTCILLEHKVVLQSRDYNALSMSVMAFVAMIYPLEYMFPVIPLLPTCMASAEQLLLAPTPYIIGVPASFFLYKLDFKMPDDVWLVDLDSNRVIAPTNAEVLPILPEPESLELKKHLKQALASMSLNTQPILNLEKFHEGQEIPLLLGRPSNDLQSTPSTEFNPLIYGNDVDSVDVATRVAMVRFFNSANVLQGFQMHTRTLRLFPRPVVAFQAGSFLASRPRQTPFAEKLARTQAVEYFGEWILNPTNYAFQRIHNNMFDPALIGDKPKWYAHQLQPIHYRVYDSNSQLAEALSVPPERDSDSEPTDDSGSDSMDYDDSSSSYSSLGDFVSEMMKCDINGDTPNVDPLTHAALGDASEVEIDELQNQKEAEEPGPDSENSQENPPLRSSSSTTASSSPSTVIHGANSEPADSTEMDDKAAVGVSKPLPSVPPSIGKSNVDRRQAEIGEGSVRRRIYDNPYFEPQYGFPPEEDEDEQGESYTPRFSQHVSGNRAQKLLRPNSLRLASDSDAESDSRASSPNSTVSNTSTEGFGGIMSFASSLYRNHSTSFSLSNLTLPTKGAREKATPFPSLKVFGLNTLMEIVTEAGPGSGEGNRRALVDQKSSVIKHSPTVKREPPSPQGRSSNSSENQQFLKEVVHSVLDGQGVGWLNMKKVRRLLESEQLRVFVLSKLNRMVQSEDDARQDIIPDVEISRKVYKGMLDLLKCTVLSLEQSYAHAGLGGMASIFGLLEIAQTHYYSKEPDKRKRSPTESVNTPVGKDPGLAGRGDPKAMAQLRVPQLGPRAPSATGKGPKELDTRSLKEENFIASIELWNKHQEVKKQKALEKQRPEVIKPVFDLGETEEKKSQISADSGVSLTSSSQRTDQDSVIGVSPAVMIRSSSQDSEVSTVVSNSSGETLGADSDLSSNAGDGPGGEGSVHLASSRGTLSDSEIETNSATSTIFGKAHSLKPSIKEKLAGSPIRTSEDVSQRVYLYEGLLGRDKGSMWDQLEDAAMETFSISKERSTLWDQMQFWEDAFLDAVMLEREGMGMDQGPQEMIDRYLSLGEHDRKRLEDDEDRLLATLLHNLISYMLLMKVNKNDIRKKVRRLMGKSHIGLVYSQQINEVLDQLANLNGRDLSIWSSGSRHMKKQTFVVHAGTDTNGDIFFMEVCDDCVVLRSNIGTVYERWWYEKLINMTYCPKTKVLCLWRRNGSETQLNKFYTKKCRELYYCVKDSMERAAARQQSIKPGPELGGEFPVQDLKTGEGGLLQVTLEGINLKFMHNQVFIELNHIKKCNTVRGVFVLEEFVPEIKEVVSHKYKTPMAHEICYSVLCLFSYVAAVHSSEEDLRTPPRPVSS
# UniProt Q9Y333: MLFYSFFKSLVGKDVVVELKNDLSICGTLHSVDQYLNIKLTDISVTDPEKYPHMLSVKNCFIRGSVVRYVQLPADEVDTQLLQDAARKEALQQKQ
# UniProt Q6PJG9: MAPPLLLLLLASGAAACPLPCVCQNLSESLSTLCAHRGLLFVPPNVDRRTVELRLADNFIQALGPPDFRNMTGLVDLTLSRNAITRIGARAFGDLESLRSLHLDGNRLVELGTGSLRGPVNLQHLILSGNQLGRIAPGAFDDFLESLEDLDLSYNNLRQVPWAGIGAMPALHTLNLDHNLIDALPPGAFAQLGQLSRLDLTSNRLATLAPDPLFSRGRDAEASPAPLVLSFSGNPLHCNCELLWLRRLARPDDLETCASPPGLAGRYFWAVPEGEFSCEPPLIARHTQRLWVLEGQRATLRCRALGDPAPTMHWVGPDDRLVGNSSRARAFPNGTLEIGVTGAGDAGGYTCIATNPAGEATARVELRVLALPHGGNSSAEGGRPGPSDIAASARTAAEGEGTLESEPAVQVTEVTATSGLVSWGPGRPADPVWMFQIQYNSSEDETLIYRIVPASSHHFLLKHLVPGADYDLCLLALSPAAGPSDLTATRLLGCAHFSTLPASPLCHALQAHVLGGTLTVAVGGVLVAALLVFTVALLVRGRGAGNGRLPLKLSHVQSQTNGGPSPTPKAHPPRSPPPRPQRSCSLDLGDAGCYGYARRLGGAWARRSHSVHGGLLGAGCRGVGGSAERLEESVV
# UniProt Q9NTJ4: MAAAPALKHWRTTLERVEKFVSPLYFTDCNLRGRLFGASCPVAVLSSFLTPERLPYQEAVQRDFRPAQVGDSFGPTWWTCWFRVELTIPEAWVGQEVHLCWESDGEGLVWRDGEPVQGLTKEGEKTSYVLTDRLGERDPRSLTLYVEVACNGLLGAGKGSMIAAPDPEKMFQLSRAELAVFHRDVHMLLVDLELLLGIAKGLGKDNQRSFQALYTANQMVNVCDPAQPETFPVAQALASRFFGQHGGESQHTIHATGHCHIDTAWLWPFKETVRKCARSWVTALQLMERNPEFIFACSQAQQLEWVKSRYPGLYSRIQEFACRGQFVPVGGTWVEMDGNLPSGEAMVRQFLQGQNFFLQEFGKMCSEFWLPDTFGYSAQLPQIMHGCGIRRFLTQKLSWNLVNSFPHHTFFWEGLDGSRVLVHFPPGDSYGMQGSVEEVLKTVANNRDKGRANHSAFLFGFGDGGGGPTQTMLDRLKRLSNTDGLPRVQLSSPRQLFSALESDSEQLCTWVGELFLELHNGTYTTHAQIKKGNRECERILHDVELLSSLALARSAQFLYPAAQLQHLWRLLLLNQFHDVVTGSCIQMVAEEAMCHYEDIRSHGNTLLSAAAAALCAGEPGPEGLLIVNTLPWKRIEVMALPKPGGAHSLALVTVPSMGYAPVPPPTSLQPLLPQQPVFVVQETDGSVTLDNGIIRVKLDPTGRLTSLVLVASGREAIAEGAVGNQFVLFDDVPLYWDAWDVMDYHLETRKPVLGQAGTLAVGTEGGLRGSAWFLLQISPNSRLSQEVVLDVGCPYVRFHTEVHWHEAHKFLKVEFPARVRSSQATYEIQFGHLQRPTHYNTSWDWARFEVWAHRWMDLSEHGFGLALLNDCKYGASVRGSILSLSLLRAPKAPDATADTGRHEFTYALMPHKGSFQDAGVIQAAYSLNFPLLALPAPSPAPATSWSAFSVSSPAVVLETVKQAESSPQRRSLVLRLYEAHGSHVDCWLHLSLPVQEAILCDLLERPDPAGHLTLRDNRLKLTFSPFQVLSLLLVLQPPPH
# UniProt Q86U70: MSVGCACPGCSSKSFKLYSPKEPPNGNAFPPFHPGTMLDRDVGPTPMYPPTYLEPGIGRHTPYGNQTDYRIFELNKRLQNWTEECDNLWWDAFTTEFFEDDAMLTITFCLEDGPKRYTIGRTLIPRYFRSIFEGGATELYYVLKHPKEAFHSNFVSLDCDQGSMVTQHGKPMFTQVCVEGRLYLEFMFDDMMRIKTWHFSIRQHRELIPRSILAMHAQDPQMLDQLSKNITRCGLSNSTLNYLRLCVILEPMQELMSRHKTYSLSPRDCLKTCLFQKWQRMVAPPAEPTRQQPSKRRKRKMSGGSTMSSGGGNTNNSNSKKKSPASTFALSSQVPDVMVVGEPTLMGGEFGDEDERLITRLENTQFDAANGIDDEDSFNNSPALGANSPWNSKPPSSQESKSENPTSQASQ
# UniProt Q14657: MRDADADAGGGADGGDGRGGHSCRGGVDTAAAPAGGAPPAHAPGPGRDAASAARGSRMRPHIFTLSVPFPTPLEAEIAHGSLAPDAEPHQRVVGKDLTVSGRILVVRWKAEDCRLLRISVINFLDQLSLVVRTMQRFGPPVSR
# UniProt Q9UIS9: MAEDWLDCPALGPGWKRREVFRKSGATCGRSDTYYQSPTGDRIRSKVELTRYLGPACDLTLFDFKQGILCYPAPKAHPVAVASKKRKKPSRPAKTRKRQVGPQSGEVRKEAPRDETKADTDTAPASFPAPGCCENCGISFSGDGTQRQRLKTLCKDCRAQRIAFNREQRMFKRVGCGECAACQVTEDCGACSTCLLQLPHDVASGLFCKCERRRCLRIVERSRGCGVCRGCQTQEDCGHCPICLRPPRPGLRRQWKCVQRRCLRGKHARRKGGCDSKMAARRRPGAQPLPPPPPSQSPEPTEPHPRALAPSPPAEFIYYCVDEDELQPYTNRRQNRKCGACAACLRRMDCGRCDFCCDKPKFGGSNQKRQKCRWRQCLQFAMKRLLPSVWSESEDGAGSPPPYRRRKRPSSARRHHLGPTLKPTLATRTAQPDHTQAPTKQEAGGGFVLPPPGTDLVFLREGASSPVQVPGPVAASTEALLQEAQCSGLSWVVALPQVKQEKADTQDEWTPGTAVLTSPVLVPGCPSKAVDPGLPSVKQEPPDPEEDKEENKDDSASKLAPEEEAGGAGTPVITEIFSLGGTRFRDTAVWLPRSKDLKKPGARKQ
# UniProt Q12851: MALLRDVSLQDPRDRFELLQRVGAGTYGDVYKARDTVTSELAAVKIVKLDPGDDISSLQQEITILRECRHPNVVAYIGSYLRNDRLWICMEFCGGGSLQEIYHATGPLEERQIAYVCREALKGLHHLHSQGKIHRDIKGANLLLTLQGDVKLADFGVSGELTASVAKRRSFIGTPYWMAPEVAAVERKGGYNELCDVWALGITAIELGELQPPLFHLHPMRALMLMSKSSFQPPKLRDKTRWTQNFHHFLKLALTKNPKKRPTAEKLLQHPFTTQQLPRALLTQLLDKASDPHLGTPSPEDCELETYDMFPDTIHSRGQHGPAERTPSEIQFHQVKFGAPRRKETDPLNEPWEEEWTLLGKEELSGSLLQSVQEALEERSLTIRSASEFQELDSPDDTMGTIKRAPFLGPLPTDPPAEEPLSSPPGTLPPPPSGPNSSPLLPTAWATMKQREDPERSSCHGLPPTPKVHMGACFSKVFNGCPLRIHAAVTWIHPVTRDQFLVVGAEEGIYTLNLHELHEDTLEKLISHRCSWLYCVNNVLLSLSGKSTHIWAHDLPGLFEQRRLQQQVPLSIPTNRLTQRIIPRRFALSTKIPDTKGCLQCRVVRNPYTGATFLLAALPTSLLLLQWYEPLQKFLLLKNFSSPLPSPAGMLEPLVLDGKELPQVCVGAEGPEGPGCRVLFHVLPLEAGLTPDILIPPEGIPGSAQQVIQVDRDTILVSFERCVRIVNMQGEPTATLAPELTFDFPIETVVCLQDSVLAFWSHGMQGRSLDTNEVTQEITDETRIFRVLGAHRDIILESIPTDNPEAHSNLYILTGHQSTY
# This is one part of the list.
# Compound: COc1ccc(Cn2ccc3cc(C)c(C(=O)NO)cc32)cc1
# Assay: dose-dependent thermal stabilisation call (2D-TPP, DLPTP, 10% FDR) (binary (1 = stabilised)); higher = stabilised by the compound
# Settings: system: HL-60 intact cells; concentration range 0.04-10 µM
# Description: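 2D thermal proteome profiling in intact HL-60 cells treated with BRD-3811 (0, 0.04, 0.29, 2, 10 uM) for 90 min at 37 C, then heated 3 min at one of 12 temperatures (42-63.9 C). Soluble protein was quantified by TMT10 MS. The value is the DLPTP call of the paper: dose-dependent thermal stabilisation over all temperatures at 10% FDR (F-test of a dose-response against a flat model); one experiment, one call per tested protein.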
row,Target,dose-dependent thermal stabilisation call
1,MAN2B1 (UniProt O00754),inactive: 0
2,LIMD2 (UniProt Q9BT23),inactive: 0
3,LTA4H (UniProt P09960),inactive: 0
4,MARS2 (UniProt Q96GW9),inactive: 0
5,MAK10 (UniProt Q5VZE5),inactive: 0
6,LETMD1 (UniProt Q6P1Q0),inactive: 0
7,LIAS (UniProt O43766),inactive: 0
8,LBA1 (UniProt O15050),inactive: 0
9,LRPAP1 (UniProt P30533),inactive: 0
10,LANCL1 (UniProt O43813),inactive: 0
11,MAGED1 (UniProt Q9Y5V3),inactive: 0
12,LTF (UniProt P02788),inactive: 0
13,MAP4K4 (UniProt O95819),inactive: 0
14,MAZ (UniProt P56270),inactive: 0
15,LARP5 (UniProt Q92615),inactive: 0
16,MANEAL (UniProt Q5VSG8),inactive: 0
17,MCART1 (UniProt Q9H1U9),inactive: 0
18,LOC550643,inactive: 0
19,MCART2 (UniProt Q3SY17),inactive: 0
20,MANEA (UniProt Q5SRI9),inactive: 0

# Nothing new here: entries from further up.
row,Target,dose-dependent thermal stabilisation call
6,LETMD1 (UniProt Q6P1Q0),inactive: 0
7,LIAS (UniProt O43766),inactive: 0
8,LBA1 (UniProt O15050),inactive: 0
9,LRPAP1 (UniProt P30533),inactive: 0
10,LANCL1 (UniProt O43813),inactive: 0
11,MAGED1 (UniProt Q9Y5V3),inactive: 0
12,LTF (UniProt P02788),inactive: 0
13,MAP4K4 (UniProt O95819),inactive: 0
14,MAZ (UniProt P56270),inactive: 0
15,LARP5 (UniProt Q92615),inactive: 0
16,MANEAL (UniProt Q5VSG8),inactive: 0

# (further entries)

row,Target,dose-dependent thermal stabilisation call
1,LRP5 (UniProt O75197),inactive: 0
2,MADD (UniProt Q8WXG6),inactive: 0
3,LSM12 (UniProt Q3MHD2),inactive: 0
4,MATK (UniProt P42679),inactive: 0
5,LSM2 (UniProt Q9Y333),inactive: 0
6,LRFN4 (UniProt Q6PJG9),inactive: 0
7,MAN2C1 (UniProt Q9NTJ4),inactive: 0
8,LRRC33 (UniProt Q86YC3),inactive: 0
9,LMO7 (UniProt Q8WWI1),inactive: 0
10,MCTS1 (UniProt Q9ULC4),inactive: 0
11,LDB1 (UniProt Q86U70),inactive: 0
12,LAGE3 (UniProt Q14657),inactive: 0
13,MBD1 (UniProt Q9UIS9),inactive: 0
14,MBD4 (UniProt O95243),inactive: 0
15,MAP4K2 (UniProt Q12851),inactive: 0
16,LOC203547,inactive: 0
17,LIG4 (UniProt P49917),inactive: 0
18,MAP1S (UniProt Q66K74),inactive: 0
19,MAP3K1 (UniProt Q13233),inactive: 0
20,LAMP1 (UniProt P11279),inactive: 0
